# Assay results published in article PMC7819943, “Rice protein-binding microarrays: a tool to detect cis-acting elements near promoter regions in rice”.
# Some of the results follow.
# Biological target: T1, OsSMF1 (Oryza sativa, UniProt Q6ZLB0 1-436)
# T1 sequence: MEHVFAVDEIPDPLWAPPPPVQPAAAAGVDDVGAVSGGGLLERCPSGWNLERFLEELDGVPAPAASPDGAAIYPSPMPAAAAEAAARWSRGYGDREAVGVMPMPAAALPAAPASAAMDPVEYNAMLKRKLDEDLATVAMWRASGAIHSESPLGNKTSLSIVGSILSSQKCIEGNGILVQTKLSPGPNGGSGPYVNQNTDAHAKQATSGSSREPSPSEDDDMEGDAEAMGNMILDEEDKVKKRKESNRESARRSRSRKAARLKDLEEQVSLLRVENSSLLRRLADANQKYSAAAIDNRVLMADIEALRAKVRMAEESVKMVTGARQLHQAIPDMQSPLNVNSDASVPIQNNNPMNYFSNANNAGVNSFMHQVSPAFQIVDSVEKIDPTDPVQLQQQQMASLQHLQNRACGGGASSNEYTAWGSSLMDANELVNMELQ
# Assay: protein-binding microarray (RPBM); PBS, 2% BSA, 51.3 ng/ul salmon testes DNA, 50 uM zinc acetate, 200 nM TF, 25 C, 1 h; high values mean tight binding
# Details: protein: recombinant; tags: N-terminal polyhistidine and DsRed monomer fusion (pET32a); chain copies: 2; label: CyDye5-dUTP incorporated in the synthesized complementary strand; 3' TTTTT single-stranded linker to array surface; dsDNA, one strand shown
# Procedure, shortened: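 For the binding signal, per-feature fluorescence intensity was read in arbitrary units on an Axon 4000B scanner. Before scanning, a 2% BSA-blocked custom Agilent array made double-stranded with Cy5-dUTP was washed after 1 h at 25 °C with 200 nM protein and 50 µM zinc acetate. The proteins were Ni–NTA-purified transcription factors with N-terminal polyhistidine and DsRed fusions, expressed in E. coli BL21-CodonPlus.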
row,Sequence,binding signal
1,GTCGAGCGGGCGAACATGATCTCGCGGGAGGGTGGGGTTGCGGAGTCACCTAGTGCAG,4320 fluorescence intensity (a.u.)
2,AACTACTCCCTCTGTTCCATAATATAAGGGATTTTAACTTCGGAGTCACCTAGTGCAG,3670 fluorescence intensity (a.u.)
3,TTAGGACCATGTCACTGCCGTCACGTTTTCCATCCATATCCGGAGTCACCTAGTGCAG,5680 fluorescence intensity (a.u.)
4,ATCCACCGCTGAGTCCCAGACGAGCGAGGGCCAGATCATCCGGAGTCACCTAGTGCAG,3410 fluorescence intensity (a.u.)
5,ACCACCACCGCTTCCTCCTCCACGCCATTACTGCTCCTCACGGAGTCACCTAGTGCAG,5320 fluorescence intensity (a.u.)
6,GCGAGACGAGCAGGACGGCGGCGGCGGCCACAAGTTCCGGCGGAGTCACCTAGTGCAG,3270 fluorescence intensity (a.u.)
7,GGATGCTAGTGTTATCTAGTCAGGCTCTACAAAATTTCTACGGAGTCACCTAGTGCAG,3660 fluorescence intensity (a.u.)
8,GCCTTTGCTCAATCCTGCAGAGAAGGGCAGAAGACGTCACCGGAGTCACCTAGTGCAG,3390 fluorescence intensity (a.u.)
9,TCAAGAAGGAGTAGTCCTATCATATAATTGCTGATTCAGTCGGAGTCACCTAGTGCAG,4190 fluorescence intensity (a.u.)
10,GCCCGTTGCTGTTGAGAGCTGATCTGTACCCCTCCTCAAGCGGAGTCACCTAGTGCAG,3780 fluorescence intensity (a.u.)
11,TACCATGTGACCGTGTGATGATCGATCGATGATCACCATTCGGAGTCACCTAGTGCAG,3370 fluorescence intensity (a.u.)
12,AGGCGGCATTTTATCAGCGATGTACCACTACTATTATTTGCGGAGTCACCTAGTGCAG,17000 fluorescence intensity (a.u.)
13,AAACATAACAATATTTTCAACATAAAACAAATAATGTTATCGGAGTCACCTAGTGCAG,3530 fluorescence intensity (a.u.)
14,GTGGCGCGGAATGTGTGTTGGCATGCTGACTTAGCCTCCCCGGAGTCACCTAGTGCAG,5880 fluorescence intensity (a.u.)
15,TCATTCTCCGACATCTATCGTCGCCGTCACCAACATCCTACGGAGTCACCTAGTGCAG,3930 fluorescence intensity (a.u.)
16,CGGTTTACGAGGACGTGGTACACGTTTCATGTACACCGCACGGAGTCACCTAGTGCAG,5100 fluorescence intensity (a.u.)
17,TGGGCCTGCGTAGACGCTGACTCCGCTTTGCTGGATTGTCCGGAGTCACCTAGTGCAG,8910 fluorescence intensity (a.u.)
18,ACCTCGTCGCTGCGCCGCGCGGCCTCGACGTGGCCGCCACCGGAGTCACCTAGTGCAG,3790 fluorescence intensity (a.u.)
19,GGGGATAATCTCTGAAGAAAGGCCGGGCAATGATTACCACCGGAGTCACCTAGTGCAG,4490 fluorescence intensity (a.u.)
20,ATATTTCGCCCAAATTCTCCCACGTACTAGGGCCACCACCCGGAGTCACCTAGTGCAG,3360 fluorescence intensity (a.u.)
21,ACATCTGGCGCGGCGGCCACGAGTACATCGGGACGTGGAACGGAGTCACCTAGTGCAG,3170 fluorescence intensity (a.u.)

row,Sequence,binding signal
1,TATCCATCCATGCATTTGTCATCTGCCAACTCACCTACCTCGGAGTCACCTAGTGCAG,8250 fluorescence intensity (a.u.)
2,TATCCTCTTTGCTGCTAATGGTGTCATTATCCCGTGTGTACGGAGTCACCTAGTGCAG,3940 fluorescence intensity (a.u.)
3,GCCCTTTGTAGTTAATACAACGATGTGGGTTGCTTTTGCTCGGAGTCACCTAGTGCAG,19400 fluorescence intensity (a.u.)
4,CAGCATCAGCTGCATCACTCCCCGCCTCTCCGCGATCGCACGGAGTCACCTAGTGCAG,3280 fluorescence intensity (a.u.)
5,GGTGGTGACCGCGTCGTCGCGGAGCGGGAGGCGCGCGAGGCGGAGTCACCTAGTGCAG,30200 fluorescence intensity (a.u.)
6,GCCCAAATTCAACCCGACGCCACGAGGCAACCTGACTCGGCGGAGTCACCTAGTGCAG,6490 fluorescence intensity (a.u.)
7,TATAAATTAAACACAGCCACGTAACCCTAATTTCAGAAACCGGAGTCACCTAGTGCAG,7400 fluorescence intensity (a.u.)
8,GAGGATAAAGTATGCACACGTGTGACATATGGCAAGACAACGGAGTCACCTAGTGCAG,6410 fluorescence intensity (a.u.)
9,GCCCTTATGAATATTGGCGTGTCGCGACGCCCCACGACTCCGGAGTCACCTAGTGCAG,3820 fluorescence intensity (a.u.)
10,GTTTGTCTGACCCAACTAAAGCCCTTGAGATATTACAAATCGGAGTCACCTAGTGCAG,4480 fluorescence intensity (a.u.)
11,TTGATCATAGTTTTAGCTGATGTGGCTCCTACATGGTGACCGGAGTCACCTAGTGCAG,6450 fluorescence intensity (a.u.)
12,GCCACCTCGGCGCATCCACGCAACCCACCCGTCGCGAGTCCGGAGTCACCTAGTGCAG,3320 fluorescence intensity (a.u.)
13,TAACTTCTTGCAGAAATGCCTCGTCATCGGTGACGCCGTTCGGAGTCACCTAGTGCAG,4870 fluorescence intensity (a.u.)
14,CGCCGCTCACCGGCGACGGGCGGCGCCGGATTTCGCCGTCCGGAGTCACCTAGTGCAG,4860 fluorescence intensity (a.u.)
15,AGGACTGCCCTGACCCTGACACGCGCCAAGCTGTTCCTCCCGGAGTCACCTAGTGCAG,3810 fluorescence intensity (a.u.)
16,TAGAAGTCTTGGTTCACGCACAGTACAGTACTTGTCAAAGCGGAGTCACCTAGTGCAG,22200 fluorescence intensity (a.u.)
17,CGCTGTCGACCTCCCCACCTCCTCCTTCGCACGTTCTCGCCGGAGTCACCTAGTGCAG,15600 fluorescence intensity (a.u.)
18,GTTCCATTGGTTTGTAATAATGAAGCCTGCCTAGTGCTTTCGGAGTCACCTAGTGCAG,32100 fluorescence intensity (a.u.)
19,ACGCTTCCGGGGAGGTCACCGTCAGATGCGGTGGATGCGTCGGAGTCACCTAGTGCAG,3540 fluorescence intensity (a.u.)
20,GGCAGTATTGTGGGTGGTTTCGTCCGACGTGGAGGATTGACGGAGTCACCTAGTGCAG,8560 fluorescence intensity (a.u.)
21,AGAGATGACCATGACGCAATCTAATCATGCAGACACCATACGGAGTCACCTAGTGCAG,3520 fluorescence intensity (a.u.)

# Rewritten with bars between the fields: entries from further up
row | Sequence | binding signal
2 | AACTACTCCCTCTGTTCCATAATATAAGGGATTTTAACTTCGGAGTCACCTAGTGCAG | 3670 fluorescence intensity (a.u.)
8 | GCCTTTGCTCAATCCTGCAGAGAAGGGCAGAAGACGTCACCGGAGTCACCTAGTGCAG | 3390 fluorescence intensity (a.u.)
9 | TCAAGAAGGAGTAGTCCTATCATATAATTGCTGATTCAGTCGGAGTCACCTAGTGCAG | 4190 fluorescence intensity (a.u.)
11 | TACCATGTGACCGTGTGATGATCGATCGATGATCACCATTCGGAGTCACCTAGTGCAG | 3370 fluorescence intensity (a.u.)
13 | AAACATAACAATATTTTCAACATAAAACAAATAATGTTATCGGAGTCACCTAGTGCAG | 3530 fluorescence intensity (a.u.)
17 | TGGGCCTGCGTAGACGCTGACTCCGCTTTGCTGGATTGTCCGGAGTCACCTAGTGCAG | 8910 fluorescence intensity (a.u.)
7 | TATAAATTAAACACAGCCACGTAACCCTAATTTCAGAAACCGGAGTCACCTAGTGCAG | 7400 fluorescence intensity (a.u.)
9 | GCCCTTATGAATATTGGCGTGTCGCGACGCCCCACGACTCCGGAGTCACCTAGTGCAG | 3820 fluorescence intensity (a.u.)
10 | GTTTGTCTGACCCAACTAAAGCCCTTGAGATATTACAAATCGGAGTCACCTAGTGCAG | 4480 fluorescence intensity (a.u.)
12 | GCCACCTCGGCGCATCCACGCAACCCACCCGTCGCGAGTCCGGAGTCACCTAGTGCAG | 3320 fluorescence intensity (a.u.)
18 | GTTCCATTGGTTTGTAATAATGAAGCCTGCCTAGTGCTTTCGGAGTCACCTAGTGCAG | 32100 fluorescence intensity (a.u.)
